Data as given in patent EP3600393A1.
No constants are given. Whether binding was seen depends on the method and setting. Some binding calls cover weakened binding; strength is not graded here. One block for each binder: values may come before it.

The chains behind the UniProt entries cited, without tags or fusion partners. Where a name states a change or a piece, a line headed by the entry shows the natural chain unless it says otherwise. Residues count along the entry.
UniProt Q08722: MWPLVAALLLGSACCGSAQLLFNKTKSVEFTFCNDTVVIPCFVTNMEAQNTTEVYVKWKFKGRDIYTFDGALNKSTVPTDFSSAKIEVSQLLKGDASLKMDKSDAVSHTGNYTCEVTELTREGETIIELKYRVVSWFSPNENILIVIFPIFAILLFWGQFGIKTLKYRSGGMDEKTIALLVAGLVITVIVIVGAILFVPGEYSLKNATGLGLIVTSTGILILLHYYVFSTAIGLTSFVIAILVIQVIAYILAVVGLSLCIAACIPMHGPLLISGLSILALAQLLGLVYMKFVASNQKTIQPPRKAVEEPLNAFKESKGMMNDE
human CD47: residues 19-323 of Q08722
recombinant human His-CD47 (AcroBiosystems): residues 19-139 of Q08722

Columns and labels:
[1] = target: recombinant human His-CD47 (AcroBiosystems) (human) (UniProt Q08722); assay: solid-phase ELISA on adsorbed His-CD47 at pH 6 or pH 8 (Table 6, body missing)
human CD47 (human) = human CD47 (human) (UniProt Q08722); assay: cell-based ELISA on OV10 hCD47 cells and flow cytometry on hRBCs

- binding [1]: binds
B1: murine VLX9 antibody (antibody, V domains shown)
VH: QVQLQQFGAELAKPGASVQMSCKASGYTFTNYWIHWVKQRPGQGLEWIGYTDPRTDYTEYNQKFKDKATLAADRSSSTAYMRLSSLTSEDSAVYYCAGGGRVGLGYWGHGSSVTVSS
VL: DVFMTQTPLSLPVSLGDQASISCRSSQNIVQSNGNTYLEWYLQKPGQSPKLLIYKVFHRFSGVPDRFSGSGSGTDFTLKISRVEAEDLGVYYCFQGSHVPWTFGGGTKVEIK

- binding (human CD47 (human)): binds
B2: VLX8 IgG4PE xi (antibody, V domains shown)
VH: EVQLQQSGPELMKPGASVKISCKASGYSFTNYYIHWVNQSHGKSLEWIGYIDPLNGDTTYNQKFKGKATLTVDKSSSTAYMRLSSLTSADSAVYYCARGGKRAMDYWGQGTSVTVSS
VL: DIQMTQTTSSLSASLGDRVTISCRASQDISNYLNWYQQKPDGTVKLLIYYTSRLYSGVPSRFSGSGSGTDYSLTISNLEQEDIATYFCQQGNTLPWTFGGGTKLEIKR
